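Viability assay of Plasmodium falciparum sporozoites; the read-out is not stated. The concentration is filed as 10 mM, unlikely as a test dose, so the dose is not known. Higher reads as lower viability (inferred: compounds with an IC50 in retests scored well above the rest). Strong results were mostly tested again. Size under these conditions: about 34,000 compounds, about 280 of them at 50% or above in at least one test.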

Values are the deposited “Percent Effect”, in %.
The controls that fix the scale are not given in the record; negative values are as filed.
Compounds were drawn at random from those tested, without regard to their results.
Two or more numbers in one place are separate tests of the same structure; such repeats can differ widely.

SMILES | effect
Cc1cc(C)c(CNC(=O)N2CCCC2c2ccc(F)cc2)c(=O)[nH]1 (stereo unspecified) | 3.015%
O=C(Nc1nc2c(s1)CN(S(=O)(=O)C1CC1)CC2)c1ccsc1 | -33.95% and -42.74%
CC(C)c1csc(C2CCCN(C(=O)Cn3ccccc3=O)C2)n1 (stereo unspecified) | -6.101%
COc1ccnc(N2CCN(C(=O)CN3CCOCC3)CC2)n1 | 7.271%
COCCN(C)C(=O)Nc1ccc2c(ccn2CC(=O)N(C)C)c1 | 8.626%
CC(C)OCc1ncn2c1CN(CC1CC1)CCC2.O=C(O)C(F)(F)F | 18.86%
Cc1nc(C2CCCN2C(=O)CCc2ccccc2)ncc1C(N)=O (stereo unspecified) | -3.182%
COCCN1CCCC(O)(CN2CCN(c3cnccn3)CC2)C1=O (stereo unspecified) | 3.638%
CC(=O)Nc1ncc(S(=O)(=O)Nc2ccc(F)cc2F)s1 | -0.6579%
CC(C)c1cc(CNC(=O)N2CCC(Cc3cnn(C)c3)C2)on1 (stereo unspecified) | 1.127%
Cc1csc(C2(NCc3nnc(-c4ccco4)o3)CCCC2)n1 | -0.3337%
COCC1CN(c2ncccn2)Cc2cnn(CC3CC3)c21 (stereo unspecified) | -2.977%
Cc1cc(CN2CCN(C(=O)NCc3nc(C)cs3)CC2)on1 | 13.28%
O=C(O)C(F)(F)F.O=C(c1ccco1)N1CCc2c(COCC3CC3)cncc2C1 | 3.199%
CC(C)(C)NC(=O)[C@@H]1Cc2ccccc2CN1Cc1cccs1 | -15.88%
Cn1c(CN2CCCC2)nnc1C1CCCN(C(=O)C2CCOCC2)C1 (stereo unspecified) | -1.059%
CCc1noc(C2CCCCN2C(=O)c2nnc3ccccc3n2)n1 (stereo unspecified) | -6.36%
O=C(O)C(F)(F)F.[H][C@]12CCN(C(=O)c3occc3C)C[C@@]1([H])OCCN(C1CCOCC1)C2 | 4.557%
O=C(c1ccc[nH]1)N1CCN(Cc2ccncc2)c2ncccc2C1 | -0.1686%
[H][C@@]12OCCN(S(=O)(=O)C3CC3)[C@@]1([H])CC[C@H]2OCC | 7.589%
Cc1cc(C)c(CNC(=O)N2CCN(c3nccs3)CC2)c(=O)[nH]1 | 6.595%
COc1ccc(NC(C)=O)c(N2CCN(C(C)=O)CC2)n1 | -18.04%
O=C(O)C(F)(F)F.O=C(O)C(F)(F)F.O=C1CCC2(CCN(Cc3ccc(F)cc3)CC2)N1CCN1CCCC1 | -7.581%
Cc1cnn(C2CCCN(C(=O)CCCNc3ncccn3)C2)c1 (stereo unspecified) | -7.68%
CCN(Cc1ccc2c(c1)OCO2)C(=O)Cn1cccnc1=O | 13.14%
O=C(O)C(F)(F)F.O=C(O)C(F)(F)F.[H][C@@]12CN(Cc3cccnc3)CCO[C@]1([H])CN(C(C)=O)C2 | -4.38%
CC(NC(=O)NCCCn1cccn1)c1ccc2c(c1)OCCCO2 (stereo unspecified) | -8.668%
[H][C@@]12OCCN(C(=O)COc3ccc(C)cc3)[C@@]1([H])CC[C@H]2OC | 7.05%
CN1CCCC(CCCc2cccnc2)(C(N)=O)C1 (stereo unspecified) | 1.732%
Cc1nc(C)n(CC2CCCN(Cc3nnc(C(C)(C)C)o3)C2)n1 (stereo unspecified) | -9.583%
Cc1ccccc1C(=O)N1CCC2(CC1)CC(c1cnn(C)c1)CO2 (stereo unspecified) | 2.835%
O=C(NCCc1ccccc1)C1CCC(Cn2cnnn2)CC1 (stereo unspecified) | -6.798%
CCc1cc(C(F)(F)F)n2nc(C3CCCN3C(=O)COC)cc2n1 (stereo unspecified) | 15.5%
Cc1nn(C)c(C)c1C1CCCN1C(=O)CCCNc1ncccn1 (stereo unspecified) | 2.148%
Fc1ccccc1CN1CCC(c2n[nH]c(C3CC3)n2)CC1 | 5.714%
Cc1nc[nH]c1CN(Cc1ccccc1F)C1CC(C)(C)NC(C)(C)C1.O=C(O)CC(O)(CC(=O)O)C(=O)O | 3.626%
O=C(CCNC(=O)C1CCCC1)NCc1ccccc1Cn1ccnc1 | 6.553%
CCOCCCNC(=O)c1ccccc1S(C)(=O)=O | -13.19%
Cn1cc(N2CC3(COCCN(Cc4ccsc4)C3)OCC2=O)cn1.O=C(O)C(F)(F)F (stereo unspecified) | 7.942%
Cn1cc(N2CCC(Nc3ccc4nccnc4n3)C2=O)cn1 (stereo unspecified) | -7.23%
COCCN1CCCC1c1ccnc(-c2ccccc2)n1 (stereo unspecified) | 6.777%
Cc1ccc(-c2ccccc2CC2CNCCNC2=O)c(C)c1.Cl (stereo unspecified) | 13.03%
COCC1CC2(CCN(Cc3ccco3)CC2)CN1C(C)C.O=C(O)C(F)(F)F.O=C(O)C(F)(F)F (stereo unspecified) | 0.7299%
CCN(Cc1ccco1)C(=O)Nc1cc(C(F)(F)F)c[nH]c1=O | -5.786%
c1ccc(Oc2cc(CNCC3CNc4ccnn4C3)ccn2)cc1 (stereo unspecified) | 3.58%
COCCOc1ccc(S(=O)(=O)Nc2cccnc2O)cc1C | -10.26% and -4.441%
O=C(O)C(F)(F)F.[H][C@]12CCC(=O)N(c3cccnc3)[C@@]1([H])CCN2C(=O)c1occc1C | 4.601%
COc1cc(C)c(CN2CCC3(CC2)C(C(=O)O)CC(=O)N3C)cc1C (stereo unspecified) | 1.717%
CCc1nccn1-c1cncc(C2CCCN2CC(=O)N2CCCC2)n1 (stereo unspecified) | 14.06%
CN(C)c1nc(NCCc2cnccn2)ncc1F | -31.27% and -31.68%
COc1ccc(C2CC(=O)Nc3c2cnn3C)cc1 (stereo unspecified) | 14.86%
O=C(O)C(F)(F)F.[H][C@@]12CCCO[C@]1([H])[C@@H](OCC)CN2CC1CC1 | 7.426%

The first 3 entries again:

| SMILES | effect |
|---|---|
| `Cc1cc(C)c(CNC(=O)N2CCCC2c2ccc(F)cc2)c(=O)[nH]1` (stereo unspecified) | 3.015% |
| `O=C(Nc1nc2c(s1)CN(S(=O)(=O)C1CC1)CC2)c1ccsc1` | -33.95% and -42.74% |
| `CC(C)c1csc(C2CCCN(C(=O)Cn3ccccc3=O)C2)n1` (stereo unspecified) | -6.101% |

Measurements from “University of Dundee, Small-Polar-MMV Screening Library” (2021), ChEMBL document CHEMBL3988442.